The list shows a part of the results.
Tests used:
Test in all cases: log2 fold change, soluble protein after heating vs DMSO (PISA); higher = thermal stabilisation; K562 cells, 10 uM, 30 min; active = over 0.2 and 3.5 SD of the protein, either way, in both replicates (recomputed)
[1] = compound: CC1=C(C=C(C=C1)NC(=O)C2=CC(=CC=C2)C(C)(C)C#N)NC3=CC4=C(C=C3)N=CN(C4=O)C
Procedure, shortened: (§1)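 K562 cells at 2×10^6 cells/mL were given 10 μM compound for 30 min. Aliquots then went through 3 min of heating across 48°C-58°C, were pooled, and were extracted in PBS with 0.5% NP-40 at 4°C, and the supernatant after 21,000xg for 90 min was quantified by TMTpro 16plex LC-MS/MS with channel sums equalised. Thermal stability relative to control samples, from duplicates, is given as log2 fold change.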

The chains behind the UniProt entries cited, without tags or fusion partners. Where a name states a change or a piece, a line headed by the entry shows the natural chain unless it says otherwise.
UniProt Q9P0I2: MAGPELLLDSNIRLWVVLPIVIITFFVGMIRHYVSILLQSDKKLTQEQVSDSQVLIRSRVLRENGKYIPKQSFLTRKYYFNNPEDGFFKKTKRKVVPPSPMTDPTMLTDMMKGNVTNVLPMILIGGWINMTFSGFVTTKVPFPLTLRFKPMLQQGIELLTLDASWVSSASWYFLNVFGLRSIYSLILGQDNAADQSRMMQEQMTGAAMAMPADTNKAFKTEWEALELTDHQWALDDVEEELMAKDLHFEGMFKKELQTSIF
UniProt O95163: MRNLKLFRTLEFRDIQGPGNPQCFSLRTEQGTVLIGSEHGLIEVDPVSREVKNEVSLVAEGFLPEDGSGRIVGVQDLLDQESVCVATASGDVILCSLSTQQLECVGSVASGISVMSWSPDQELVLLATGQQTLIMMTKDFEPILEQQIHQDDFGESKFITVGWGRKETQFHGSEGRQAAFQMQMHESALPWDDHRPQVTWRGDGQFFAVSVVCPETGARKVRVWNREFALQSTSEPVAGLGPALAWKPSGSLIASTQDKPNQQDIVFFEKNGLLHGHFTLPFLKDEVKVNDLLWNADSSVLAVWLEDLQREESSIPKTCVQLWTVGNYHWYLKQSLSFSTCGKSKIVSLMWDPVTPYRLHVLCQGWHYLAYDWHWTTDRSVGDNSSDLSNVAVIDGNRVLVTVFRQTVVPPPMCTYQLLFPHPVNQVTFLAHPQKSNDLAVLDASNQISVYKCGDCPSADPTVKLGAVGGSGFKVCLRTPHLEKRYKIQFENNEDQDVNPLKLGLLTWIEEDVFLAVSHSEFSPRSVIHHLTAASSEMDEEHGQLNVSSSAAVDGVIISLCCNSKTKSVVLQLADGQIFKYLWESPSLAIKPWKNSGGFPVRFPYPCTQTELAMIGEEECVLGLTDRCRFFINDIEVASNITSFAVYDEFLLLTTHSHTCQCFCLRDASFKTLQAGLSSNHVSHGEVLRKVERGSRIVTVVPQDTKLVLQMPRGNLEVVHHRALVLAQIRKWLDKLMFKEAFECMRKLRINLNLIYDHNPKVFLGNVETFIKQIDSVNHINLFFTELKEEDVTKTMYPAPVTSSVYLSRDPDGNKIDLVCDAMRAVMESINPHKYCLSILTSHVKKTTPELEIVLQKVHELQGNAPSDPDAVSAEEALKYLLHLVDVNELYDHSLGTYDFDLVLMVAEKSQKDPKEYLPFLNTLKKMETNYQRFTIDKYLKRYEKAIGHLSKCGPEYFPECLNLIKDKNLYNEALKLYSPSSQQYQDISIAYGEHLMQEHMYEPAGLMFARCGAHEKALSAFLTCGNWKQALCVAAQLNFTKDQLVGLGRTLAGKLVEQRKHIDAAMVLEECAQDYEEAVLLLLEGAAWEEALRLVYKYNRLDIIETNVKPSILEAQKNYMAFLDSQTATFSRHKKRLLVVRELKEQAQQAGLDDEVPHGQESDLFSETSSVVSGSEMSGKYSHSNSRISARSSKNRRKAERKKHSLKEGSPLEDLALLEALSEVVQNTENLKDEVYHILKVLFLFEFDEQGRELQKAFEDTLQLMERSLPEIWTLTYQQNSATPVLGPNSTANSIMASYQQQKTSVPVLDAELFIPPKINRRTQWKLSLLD
UniProt P13929, whole entry, looked up: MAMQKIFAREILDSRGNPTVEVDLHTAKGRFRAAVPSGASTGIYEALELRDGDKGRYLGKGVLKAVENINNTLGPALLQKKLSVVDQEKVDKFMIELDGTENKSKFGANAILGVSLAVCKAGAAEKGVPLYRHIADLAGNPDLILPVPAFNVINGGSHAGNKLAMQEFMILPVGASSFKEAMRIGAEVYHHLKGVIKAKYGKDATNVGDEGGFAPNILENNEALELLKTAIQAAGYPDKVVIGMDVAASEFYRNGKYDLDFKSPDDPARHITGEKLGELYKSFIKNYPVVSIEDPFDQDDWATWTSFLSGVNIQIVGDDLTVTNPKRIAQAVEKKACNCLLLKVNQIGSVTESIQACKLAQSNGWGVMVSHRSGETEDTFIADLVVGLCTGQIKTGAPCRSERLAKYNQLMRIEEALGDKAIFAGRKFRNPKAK
UniProt Q9H223: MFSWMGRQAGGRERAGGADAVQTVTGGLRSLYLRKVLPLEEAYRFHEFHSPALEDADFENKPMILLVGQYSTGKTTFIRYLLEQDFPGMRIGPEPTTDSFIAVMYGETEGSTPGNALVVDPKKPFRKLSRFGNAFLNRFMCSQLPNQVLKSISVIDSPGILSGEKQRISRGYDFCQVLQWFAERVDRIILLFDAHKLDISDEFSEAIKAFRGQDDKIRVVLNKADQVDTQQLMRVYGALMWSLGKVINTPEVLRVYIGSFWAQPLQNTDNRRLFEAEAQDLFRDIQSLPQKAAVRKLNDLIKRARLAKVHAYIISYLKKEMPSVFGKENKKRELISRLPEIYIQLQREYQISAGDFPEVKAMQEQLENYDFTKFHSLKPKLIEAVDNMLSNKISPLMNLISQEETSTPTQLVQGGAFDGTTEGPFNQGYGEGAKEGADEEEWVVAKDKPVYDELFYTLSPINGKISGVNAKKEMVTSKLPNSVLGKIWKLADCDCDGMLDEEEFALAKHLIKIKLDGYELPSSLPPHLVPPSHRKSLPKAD
UniProt P06733, whole entry, looked up: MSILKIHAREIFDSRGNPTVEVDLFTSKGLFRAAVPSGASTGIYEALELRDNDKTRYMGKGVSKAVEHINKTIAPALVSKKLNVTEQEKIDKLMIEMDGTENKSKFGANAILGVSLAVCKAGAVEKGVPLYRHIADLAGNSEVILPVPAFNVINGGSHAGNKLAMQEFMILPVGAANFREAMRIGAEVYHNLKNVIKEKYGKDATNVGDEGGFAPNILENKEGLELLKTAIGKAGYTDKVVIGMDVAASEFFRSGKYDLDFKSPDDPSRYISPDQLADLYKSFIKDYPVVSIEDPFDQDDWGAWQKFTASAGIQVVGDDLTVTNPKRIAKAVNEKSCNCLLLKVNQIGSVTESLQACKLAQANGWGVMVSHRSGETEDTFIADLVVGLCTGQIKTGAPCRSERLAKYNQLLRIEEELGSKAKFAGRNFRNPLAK
UniProt Q9Y262, whole entry, looked up: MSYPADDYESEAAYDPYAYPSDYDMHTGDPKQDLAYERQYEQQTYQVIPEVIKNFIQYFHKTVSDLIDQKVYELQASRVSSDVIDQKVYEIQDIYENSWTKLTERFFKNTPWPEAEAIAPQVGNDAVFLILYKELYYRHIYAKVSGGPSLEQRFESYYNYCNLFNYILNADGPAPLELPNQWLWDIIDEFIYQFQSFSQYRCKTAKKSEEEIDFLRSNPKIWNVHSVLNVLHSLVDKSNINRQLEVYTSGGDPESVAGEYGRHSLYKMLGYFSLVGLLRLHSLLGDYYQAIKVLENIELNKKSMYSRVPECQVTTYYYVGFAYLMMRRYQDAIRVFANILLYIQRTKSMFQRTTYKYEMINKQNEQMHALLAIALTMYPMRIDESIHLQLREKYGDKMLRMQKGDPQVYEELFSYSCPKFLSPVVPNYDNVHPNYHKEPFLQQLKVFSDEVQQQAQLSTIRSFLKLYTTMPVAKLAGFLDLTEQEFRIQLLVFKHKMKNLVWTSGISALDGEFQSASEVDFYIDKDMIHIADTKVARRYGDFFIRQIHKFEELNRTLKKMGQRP
UniProt O43324: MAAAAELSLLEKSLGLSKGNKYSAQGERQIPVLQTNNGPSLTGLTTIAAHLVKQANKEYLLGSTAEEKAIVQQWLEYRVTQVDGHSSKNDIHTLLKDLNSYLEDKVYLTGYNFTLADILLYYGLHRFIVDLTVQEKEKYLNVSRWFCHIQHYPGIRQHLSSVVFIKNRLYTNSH
UniProt Q9BY44: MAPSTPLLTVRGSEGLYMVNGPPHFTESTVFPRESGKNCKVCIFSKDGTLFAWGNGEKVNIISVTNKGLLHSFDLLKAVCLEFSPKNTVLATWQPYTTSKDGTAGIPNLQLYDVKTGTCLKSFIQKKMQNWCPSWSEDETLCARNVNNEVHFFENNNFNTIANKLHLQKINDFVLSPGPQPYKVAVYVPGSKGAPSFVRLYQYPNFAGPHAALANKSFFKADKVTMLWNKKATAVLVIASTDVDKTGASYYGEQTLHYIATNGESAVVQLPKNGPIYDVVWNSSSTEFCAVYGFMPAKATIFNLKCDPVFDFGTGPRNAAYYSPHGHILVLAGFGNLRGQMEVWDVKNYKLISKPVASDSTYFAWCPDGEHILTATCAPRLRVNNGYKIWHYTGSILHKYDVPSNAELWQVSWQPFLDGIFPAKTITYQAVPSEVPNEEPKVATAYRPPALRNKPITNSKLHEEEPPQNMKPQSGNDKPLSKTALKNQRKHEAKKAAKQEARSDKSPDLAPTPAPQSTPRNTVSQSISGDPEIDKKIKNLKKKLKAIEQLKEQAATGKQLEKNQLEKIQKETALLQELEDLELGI
UniProt Q08426: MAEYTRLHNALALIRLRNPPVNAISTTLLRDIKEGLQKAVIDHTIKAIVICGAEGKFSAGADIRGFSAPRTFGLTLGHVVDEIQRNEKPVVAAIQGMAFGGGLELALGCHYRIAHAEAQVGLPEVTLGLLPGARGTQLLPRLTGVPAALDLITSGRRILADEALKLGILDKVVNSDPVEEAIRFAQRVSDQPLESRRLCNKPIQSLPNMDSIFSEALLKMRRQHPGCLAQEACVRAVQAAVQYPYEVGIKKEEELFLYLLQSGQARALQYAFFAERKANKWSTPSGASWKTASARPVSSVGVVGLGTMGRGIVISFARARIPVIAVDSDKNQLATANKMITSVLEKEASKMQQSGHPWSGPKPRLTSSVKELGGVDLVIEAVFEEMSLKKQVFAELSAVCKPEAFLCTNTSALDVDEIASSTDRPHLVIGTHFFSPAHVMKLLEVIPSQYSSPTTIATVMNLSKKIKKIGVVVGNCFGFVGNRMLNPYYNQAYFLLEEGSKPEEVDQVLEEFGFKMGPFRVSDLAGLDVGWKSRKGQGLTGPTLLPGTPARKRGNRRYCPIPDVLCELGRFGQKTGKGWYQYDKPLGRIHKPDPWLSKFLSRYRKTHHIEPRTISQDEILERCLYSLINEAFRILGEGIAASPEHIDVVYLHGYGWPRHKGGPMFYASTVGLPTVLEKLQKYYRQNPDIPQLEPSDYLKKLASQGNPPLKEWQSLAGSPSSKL
UniProt P20042, whole entry, looked up: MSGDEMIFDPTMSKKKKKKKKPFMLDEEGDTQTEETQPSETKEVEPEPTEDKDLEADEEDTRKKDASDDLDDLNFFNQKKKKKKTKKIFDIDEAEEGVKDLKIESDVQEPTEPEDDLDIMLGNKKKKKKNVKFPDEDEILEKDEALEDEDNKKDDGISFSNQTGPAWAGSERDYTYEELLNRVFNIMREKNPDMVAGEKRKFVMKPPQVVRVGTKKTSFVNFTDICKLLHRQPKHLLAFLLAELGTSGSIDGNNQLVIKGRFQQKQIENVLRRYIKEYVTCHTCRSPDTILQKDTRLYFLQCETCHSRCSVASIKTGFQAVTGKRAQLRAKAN
UniProt Q9NPA8: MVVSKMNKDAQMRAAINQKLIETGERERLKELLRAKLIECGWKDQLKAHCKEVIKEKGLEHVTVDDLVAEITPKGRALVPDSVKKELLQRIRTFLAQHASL
UniProt Q13541: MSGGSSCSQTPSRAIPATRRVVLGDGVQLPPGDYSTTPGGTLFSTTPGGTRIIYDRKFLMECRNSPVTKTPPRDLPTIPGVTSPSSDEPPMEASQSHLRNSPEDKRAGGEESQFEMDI
UniProt O15372, whole entry, looked up: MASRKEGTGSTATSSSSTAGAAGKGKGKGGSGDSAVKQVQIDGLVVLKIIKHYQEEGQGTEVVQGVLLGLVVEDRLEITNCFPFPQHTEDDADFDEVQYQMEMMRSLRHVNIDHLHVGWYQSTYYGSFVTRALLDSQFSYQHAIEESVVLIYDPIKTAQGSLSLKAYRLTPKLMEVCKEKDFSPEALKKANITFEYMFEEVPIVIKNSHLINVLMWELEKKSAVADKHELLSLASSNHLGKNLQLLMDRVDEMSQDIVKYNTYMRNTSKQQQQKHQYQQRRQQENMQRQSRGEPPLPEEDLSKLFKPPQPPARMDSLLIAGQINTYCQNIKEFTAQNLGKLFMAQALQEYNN

[2] = compound: CC1=C(C=C(C=C1)NC(=O)C2=CC(=CC=C2)N(C)C)NC(=O)C3=CC=C(C=C3)O
Procedure, shortened: as §1

[3] = compound: CC1=CC=C(C=C1)SC2=C3C=C(SC3=CN=C2)C(=O)N
Procedure, shortened: as §1

[4] = compound: CC1=NC(=CC=C1)C2=C(N=C(N2)C(C)(C)C)C3=CC4=NC=CN=C4C=C3
Procedure, shortened: as §1

Nexturastat A = compound: CCCCN(Cc1ccc(C(=O)NO)cc1)C(=O)Nc1ccccc1 [Nexturastat A]
Procedure, shortened: as §1

vemurafenib = compound: CCCS(=O)(=O)Nc1ccc(F)c(C(=O)c2c[nH]c3ncc(-c4ccc(Cl)cc4)cc23)c1F [vemurafenib]
Procedure, shortened: as §1

[5] = compound: CCCS(=O)(=O)Nc1ccc(F)c(C(=O)c2c[nH]c3ncc(Cl)cc23)c1F
Procedure, shortened: as §1

[6] = compound: CCCc1cc(C)[nH]c(=O)c1CNC(=O)c1cc(-c2ccnc(N3CCN(C)CC3)c2)cc2c1cnn2C(C)C
Procedure, shortened: as §1

givinostat = compound: CCN(CC)Cc1ccc2cc(COC(=O)Nc3ccc(C(=O)NO)cc3)ccc2c1 [givinostat]
Procedure, shortened: as §1

barasertib = compound: CCN(CCCOc1ccc2c(Nc3cc(CC(=O)Nc4cccc(F)c4)[nH]n3)ncnc2c1)CCOP(=O)(O)O [barasertib]
Procedure, shortened: as §1

[7] = compound: CC[C@@H]1C(=O)N(C)c2cnc(Nc3ccc(C(=O)NC4CCN(C)CC4)cc3OC)nc2N1C1CCCC1
Procedure, shortened: as §1

volasertib = compound: CC[C@@H]1C(=O)N(C)c2cnc(Nc3ccc(C(=O)N[C@H]4CC[C@H](N5CCN(CC6CC6)CC5)CC4)cc3OC)nc2N1C(C)C [volasertib]
Procedure, shortened: as §1

[8] = compound: CC[C@H](C)N1C=C(C2=C(C=C(C=C21)C3=CN=C(C=C3)N4CCNCC4)C(=O)NCC5=C(C=C(NC5=O)C)C)C
Procedure, shortened: as §1

epoxomicin = compound: CC[C@H](C)[C@@H](C(=O)N[C@@H]([C@@H](C)O)C(=O)N[C@@H](CC(C)C)C(=O)[C@]1(CO1)C)NC(=O)[C@H]([C@@H](C)CC)N(C)C(=O)C [epoxomicin]
Procedure, shortened: as §1

[9] = compound: CCn1c(C(=O)N(C2CC2)C2CC2)cc2c3c(ncn3C)c(Nc3cc(C)n(C)n3)nc21
Procedure, shortened: as §1

[10] = compound: CCn1cc(-c2ccnc3[nH]c(-c4cccc(CN(C)C)c4)cc23)c(-c2ccc(NC(=O)N(C)C)cc2)n1
Procedure, shortened: as §1

[11] = compound: CN(C)CC(=O)Nc1ccc2[nH]c(=O)c3ccccc3c2c1
Procedure, shortened: as §1

rosiglitazone = compound: CN(CCOC1=CC=C(C=C1)C[C@H]2C(=O)NC(=O)S2)C3=CC=CC=N3 (racemic) [rosiglitazone]
Procedure, shortened: as §1

[12] = compound: CN1C2=C(C3=C1C(=O)N(N=C3)CC4=CC(=CC=C4)N)SC(=C2)S(=O)C
Procedure, shortened: as §1

[13] = compound: CN1CCC(CNc2ccc3ncc(-c4cccc(OC(F)(F)F)c4)n3n2)CC1
Procedure, shortened: as §1

Measured: log2 fold change

EMC3 (UniProt Q9P0I2)
inactive: [1] 0.039 | [2] -0.016 | [3] 0.002 | [4] 0.015 | Nexturastat A -0.027 | vemurafenib 0.037 | [5] 0.019 | [6] -0.076 | givinostat -0.027 | barasertib -0.012 | [7] -0.062 | volasertib -0.016 | [8] 0.012 | epoxomicin 0.041 | [9] -0.026 | [10] -0.112 | [11] 0.015 | rosiglitazone 0.021 | [12] -0.051 | [13] 0.049

EI24 (UniProt O14681)
inactive: [1] -0.056 | [2] 0.037 | [3] 0.013 | [4] 0.147 | Nexturastat A -0.112 | vemurafenib 0.05 | [5] 0.023 | [6] -0.083 | givinostat -0.02 | barasertib -0.03 | [7] -0.054 | volasertib -0.065 | [8] -0.032 | epoxomicin 0.004 | [9] -0.043 | [10] -0.053 | [11] 0.028 | rosiglitazone 0.042 | [12] -0.059 | [13] -0.015

ELP1 (UniProt O95163)
inactive: [1] 0 | [2] 0.015 | [3] 0.004 | [4] 0.015 | Nexturastat A -0.012 | vemurafenib -0.008 | [5] 0.018 | [6] -0.066 | givinostat -0.004 | barasertib 0.009 | [7] 0.008 | volasertib -0.071 | [8] -0.012 | epoxomicin 0.014 | [9] -0.018 | [10] -0.011 | [11] 0.032 | rosiglitazone 0 | [12] -0.045 | [13] -0.015

ENO3 (UniProt P13929)
inactive: [1] 0.089 | [2] 0.015 | [3] 0.042 | [4] 0.039 | Nexturastat A 0.017 | vemurafenib 0.044 | [5] 0.084 | [6] -0.004 | givinostat -0.017 | barasertib -0.033 | [7] -0.053 | volasertib 0.014 | [8] -0.008 | epoxomicin 0.148 | [9] -0.051 | [10] -0.036 | [11] 0.018 | rosiglitazone 0.002 | [12] -0.115 | [13] 0.094

EHD4 (UniProt Q9H223)
inactive: [1] -0.019 | [2] -0.012 | [3] 0 | [4] 0.031 | Nexturastat A -0.075 | vemurafenib 0.014 | [5] 0.033 | [6] -0.003 | givinostat 0.003 | barasertib 0.029 | [7] -0.066 | volasertib -0.196 | [8] 0.016 | epoxomicin 0.033 | [9] 0 | [10] -0.022 | [11] 0.013 | rosiglitazone 0.04 | [12] -0.046 | [13] -0.108

ENO1 (UniProt P06733)
inactive: [1] -0.009 | [2] -0.004 | [3] 0.01 | [4] 0.022 | Nexturastat A -0.084 | vemurafenib -0.013 | [5] -0.029 | [6] -0.028 | givinostat -0.044 | barasertib 0.019 | [7] -0.017 | volasertib 0.081 | [8] -0.051 | epoxomicin -0.011 | [9] 0.007 | [10] 0.029 | [11] -0.009 | rosiglitazone 0.021 | [12] -0.119 | [13] -0.03

EIF3L (UniProt Q9Y262)
inactive: [1] 0.022 | [2] 0.006 | [3] -0.001 | [4] 0.01 | Nexturastat A 0.07 | vemurafenib 0.052 | [5] 0.029 | [6] 0.005 | givinostat -0.02 | barasertib 0 | [7] -0.013 | volasertib -0.057 | [8] -0.008 | epoxomicin 0.051 | [9] 0.03 | [10] -0.046 | [11] -0.003 | rosiglitazone 0.044 | [12] -0.05 | [13] -0.057

EEF1E1 (UniProt O43324)
inactive: [1] 0.033 | [2] 0.022 | [3] -0.019 | [4] -0.033 | Nexturastat A 0.188 | vemurafenib -0.037 | [5] 0.053 | [6] 0.048 | givinostat 0.02 | barasertib 0.041 | [7] 0.033 | volasertib -0.068 | [8] 0.05 | epoxomicin -0.108 | [9] -0.057 | [10] 0.003 | [11] -0.038 | rosiglitazone 0.012 | [12] 0.063 | [13] -0.051

Quoted from above (2 entries):
EHD4 (UniProt Q9H223)
inactive: [1] -0.019 | [2] -0.012 | [3] 0 | [4] 0.031 | Nexturastat A -0.075 | vemurafenib 0.014 | [5] 0.033 | [6] -0.003 | givinostat 0.003 | barasertib 0.029 | [7] -0.066 | volasertib -0.196 | [8] 0.016 | epoxomicin 0.033 | [9] 0 | [10] -0.022 | [11] 0.013 | rosiglitazone 0.04 | [12] -0.046 | [13] -0.108

ENO1 (UniProt P06733)
inactive: [1] -0.009 | [2] -0.004 | [3] 0.01 | [4] 0.022 | Nexturastat A -0.084 | vemurafenib -0.013 | [5] -0.029 | [6] -0.028 | givinostat -0.044 | barasertib 0.019 | [7] -0.017 | volasertib 0.081 | [8] -0.051 | epoxomicin -0.011 | [9] 0.007 | [10] 0.029 | [11] -0.009 | rosiglitazone 0.021 | [12] -0.119 | [13] -0.03

Remaining list, next part:

EIF4H (UniProt Q15056)
inactive: [1] 0.03 | [2] -0.009 | [3] 0 | [4] 0.062 | Nexturastat A 0.007 | vemurafenib -0.017 | [5] 0.003 | [6] 0.033 | givinostat -0.032 | barasertib 0.005 | [7] -0.089 | volasertib -0.161 | [8] -0.009 | epoxomicin 0.006 | [9] -0.012 | [10] 0.03 | [11] -0.06 | rosiglitazone 0.016 | [12] -0.038 | [13] -0.034

EIF2A (UniProt Q9BY44)
inactive: [1] 0.058 | [2] -0.022 | [3] -0.015 | [4] 0.003 | Nexturastat A 0.09 | vemurafenib -0.027 | [5] 0.011 | [6] 0.029 | givinostat 0.023 | barasertib -0.014 | [7] 0.029 | volasertib -0.059 | [8] 0.055 | epoxomicin -0.052 | [9] 0.018 | [10] 0.021 | [11] -0.049 | rosiglitazone -0.041 | [12] 0.027 | [13] 0.023

EHHADH (UniProt Q08426)
inactive: [1] -0.044 | [2] -0.028 | [3] -0.007 | [4] -0.008 | Nexturastat A 0.005 | vemurafenib -0.019 | [5] 0.02 | [6] -0.008 | givinostat -0.002 | barasertib 0.028 | [7] 0.042 | volasertib -0.012 | [8] 0.057 | epoxomicin -0.047 | [9] -0.091 | [10] -0.062 | [11] -0.007 | rosiglitazone -0.014 | [12] -0.047 | [13] -0.049

EIF2S2 (UniProt P20042)
inactive: [1] 0.002 | [2] 0.012 | [3] -0.036 | [4] -0.039 | Nexturastat A 0.136 | vemurafenib -0.055 | [5] -0.017 | [6] 0.039 | givinostat 0.019 | barasertib 0.001 | [7] 0.072 | volasertib 0.09 | [8] 0.016 | epoxomicin -0.096 | [9] -0.005 | [10] 0.031 | [11] -0.071 | rosiglitazone -0.029 | [12] 0.072 | [13] 0.122

ENY2 (UniProt Q9NPA8)
inactive: [1] 0.067 | [2] -0.033 | [3] 0.042 | [4] 0.053 | Nexturastat A -0.1 | vemurafenib -0.002 | [5] 0.023 | [6] -0.064 | givinostat -0.073 | barasertib -0.006 | [7] 0.064 | volasertib 0.002 | [8] 0.013 | epoxomicin 0.045 | [9] 0.048 | [10] 0.016 | [11] -0.061 | rosiglitazone 0.015 | [12] -0.081 | [13] 0.038

EIF4EBP1 (UniProt Q13541)
inactive: [1] 0.013 | [2] 0.018 | [3] 0.024 | [4] -0.008 | Nexturastat A 0.123 | vemurafenib 0.228 | [5] 0 | [6] 0.074 | givinostat 0.002 | barasertib 0.042 | [7] 0.059 | volasertib 0.095 | [8] -0.053 | epoxomicin 0.043 | [9] 0.05 | [10] -0.051 | [11] 0.002 | rosiglitazone -0.015 | [12] 0.014 | [13] 0.059

EIF3H (UniProt O15372)
inactive: [1] -0.014 | [2] -0.003 | [3] 0.015 | [4] 0.021 | Nexturastat A 0.047 | vemurafenib 0.012 | [5] 0.02 | [6] 0.017 | givinostat 0.046 | barasertib 0.035 | [7] -0.077 | volasertib -0.22 | [8] 0.054 | epoxomicin 0.028 | [9] -0.021 | [10] 0.014 | [11] 0.019 | rosiglitazone 0.014 | [12] 0.069 | [13] -0.106
